# Experimental data: PubChem BioAssay AID662 (National Center for Advancing Translational Sciences (NCATS), 2007)
# This is one part of the list. These are further read-outs of the screen, such as a control signal, another cell line or another target. No call is given for them. Compounds called inactive in the main read-out are mostly missing here. The note in brackets gives the kind of curve behind each potency; many fits are weak.
# Test: Cell signaling CRE-BLA (Fsk stim)
# Conditions: CHO CRE-bla reporter (cAMP response element driving beta-lactamase), forskolin EC10, beta-lactamase ratio; measured here: 460 nm blue channel
# Procedure, shortened: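 CRE-bla CHO reporter cells treated with compound titration plus EC10 NKH 477 (water-soluble forskolin), incubated 3 h at 37 °C; CCF4 loading 2 h at room temperature, 460/530 nm emission ratio read, AC50 values derived for positive or negative modulators.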
row,SMILES,AC50
1,CCN(Cc1ccccc1)Cc1cc(OC)cc(OC)c1,"0.631 µM [falling, full curve, poor fit]"
2,CCOC(=O)c1[nH]c(COC(=O)c2ccccc2NC(=O)c2ccco2)c(C(=O)OCC)c1C,"10 µM [rising, partial curve]"
3,CC(=O)c1cc(C#N)c(SCC(=O)OC(C)(C)C)nc1C,"12.6 µM [rising, partial curve]"
4,COc1ccc2c(c1)-c1nc(NC(=O)c3ccco3)sc1CC2,"15.8 µM [rising, single point]"
5,COc1cc(NC(=O)c2ccc(Cl)cc2)c(OC)cc1NC(=O)CN1CCOCC1,"5.01 µM [rising, single point]"
6,Cn1c2c(c(=O)n(C)c1=O)C(c1ccc(Br)cc1)Nc1ccccc1O2 (centres undefined),"25.1 µM [rising, single point]"
7,CN(C(=O)COC(=O)c1ccccc1Nc1ccccc1)C1CCS(=O)(=O)C1 (centres undefined),"1.26 µM [falling, partial curve]"
8,COC(=O)c1ccc(C(NC(=O)OCc2ccccc2)/C(F)=C/[C@@H](C)C(=O)NCCc2c[nH]c3ccc(OC)cc23)cc1 (some centres undefined),"25.1 µM [falling, single point]"
9,CC1CCCCC1NC(=O)C1CCN(S(=O)(=O)N2CCOCC2)CC1 (centres undefined),"2.51 µM [falling, partial curve]"
10,Cc1ccc(NS(=O)(=O)c2cccc(C(=O)OCC(=O)NCc3ccco3)c2)cc1,"1.26 µM [falling, partial curve]"
11,COC(=O)c1ccc(-c2cc(C(=O)O)c3cc4c(cc3n2)OCCO4)cc1,"12.6 µM [rising, single point]"
12,Nc1ccc2[nH]cc(CCC(=O)O)c2c1,"0.501 µM [rising, single point]"
13,CCOC(=O)c1ccc(NS(=O)(=O)c2cc(C)ccc2OC)cc1,"5.01 µM [falling, single point]"
14,CCCn1c(C)nc2c(N(CCOC)CCOC)nc(C)nc21,"10 µM [rising, partial curve]"
15,O=C(NCCc1cn2ccccc2n1)c1ccc(Br)o1,"10 µM [rising, partial curve]"
16,COc1cccc(Nc2ncc3nc(-c4ccccc4)c(=O)n(C4CC4)c3n2)c1,"3.16 µM [rising, full curve]"
17,Nc1nc(SCc2ccccn2)c2ncn(C3CCCC3)c2n1,"0.501 µM [rising, single point]"
18,CCC(C)NC(=O)C1CCN(S(=O)(=O)N2CCCC2)CC1 (centres undefined),"15.8 µM [rising, partial curve]"
19,CCNc1nc(SCCOc2ccccc2)nc(N(C)C)n1,"3.16 µM [rising, full curve]"
20,CCOC(=O)c1cnc2sc3c(n2c1=O)CCCC3,"10 µM [rising, partial curve]"
21,CCOC(=O)C1=C(CSc2nc(C)ccc2C#N)OC(N)=C(C#N)C1c1cccc(OC)c1OC (centres undefined),"25.1 µM [rising, single point]"
22,O=c1c2cnn(-c3ccccc3)c2ncn1/N=C/c1ccncc1,"0.631 µM [falling, full curve, poor fit]"

# 2 compounds picked at random from those above:
row,SMILES,AC50
11,COC(=O)c1ccc(-c2cc(C(=O)O)c3cc4c(cc3n2)OCCO4)cc1,"12.6 µM [rising, single point]"
21,CCOC(=O)C1=C(CSc2nc(C)ccc2C#N)OC(N)=C(C#N)C1c1cccc(OC)c1OC (centres undefined),"25.1 µM [rising, single point]"

# (next part)

row,SMILES,AC50
1,COc1ccc(Nc2nc3ccccc3nc2C)cc1,"12.6 µM [rising, partial curve]"
2,O=C(Nc1ccccn1)c1ccc2ccccc2n1,"3.98 µM [falling, partial curve]"
3,O=C(NCc1cccs1)C1CCN(S(=O)(=O)c2ccc3c(c2)OCCO3)CC1,"25.1 µM [falling, single point]"
4,N#CCSc1nc2c(cc1C#N)CCCC2,"12.6 µM [rising, partial curve]"
5,Cn1c(=O)c2cnc(N3CCOCC3)nc2n(C)c1=O,"3.98 µM [falling, partial curve]"
6,Cc1ccc(C2C=C(c3ccc4c(c3)OCO4)Nc3ncnn32)cc1 (centres undefined),"25.1 µM [rising, partial curve]"
7,Cc1nc2cnc(Nc3ccccc3)nc2n(Cc2ccc(F)cc2)c1=O,"12.6 µM [rising, partial curve]"
8,CCCCCCNC(=O)C(C#N)c1nc2ccccc2nc1N1CCOCC1 (centres undefined),"5.01 µM [rising, partial curve]"
9,CCSc1nc(=O)n(-c2ccccc2)c(C)c1C(C)=O,"1 µM [rising, full curve]"
10,COc1ccc(C(=O)N2CCN(S(=O)(=O)c3ccccc3)CC2)c(OC)c1,"12.6 µM [falling, partial curve]"
11,COc1ccc(CCn2c(N3CCN(Cc4ccccc4)CC3)nc3c2c(=O)[nH]c(=O)n3C)cc1,"5.01 µM [rising, partial curve]"
12,Cc1nnc(SCC(=O)NCCN2C(=O)CSC2=O)s1,"0.1 µM [falling, full curve, poor fit]"
13,CC(=O)N1CC2(CC2)CC1c1ccccc1 (centres undefined),"3.16 µM [rising, full curve]"
14,Cc1cc(NC(=O)CSc2nc3c(c(=O)n2Cc2ccccc2)SC(C)C3)no1 (centres undefined),"10 µM [rising, partial curve]"
15,FC(F)(F)c1cccnc1N1CCN(c2ncnc3nc[nH]c23)CC1,"10 µM [rising, single point]"
16,Nc1ccc(S(=O)(=O)c2cccc(N)c2)cc1,"0.316 µM [falling, partial curve]"
17,CC1Cc2ccccc2N1c1ncnc2nc[nH]c12 (centres undefined),"12.6 µM [rising, single point]"
18,O=c1c(-c2ccc(Cl)cc2)nc2cncnc2n1Cc1ccccc1Cl,"5.01 µM [rising, partial curve]"
19,CCN(CC)c1ccc2c(Cl)c(Br)c(=O)oc2c1,"15.8 µM [rising, partial curve]"
20,Cc1cc(N2CCCCC2)n2ncc(-c3ccccc3)c2n1,"15.8 µM [rising, partial curve]"
21,O=C(Nc1ccc2c(c1)CCC2)C1CCN(c2c3c(nc4ncnn24)CCC3)CC1,"7.94 µM [falling, single point]"
22,COC(=O)NC1CSCC1OC(=O)CN1C(=O)c2ccccc2C1=O (centres undefined),"10 µM [falling, partial curve, poor fit]"
